{"sequences": {"note": "Chains of the proteins cited; added tags and fusions are not shown.", "UniProt Q96P20": "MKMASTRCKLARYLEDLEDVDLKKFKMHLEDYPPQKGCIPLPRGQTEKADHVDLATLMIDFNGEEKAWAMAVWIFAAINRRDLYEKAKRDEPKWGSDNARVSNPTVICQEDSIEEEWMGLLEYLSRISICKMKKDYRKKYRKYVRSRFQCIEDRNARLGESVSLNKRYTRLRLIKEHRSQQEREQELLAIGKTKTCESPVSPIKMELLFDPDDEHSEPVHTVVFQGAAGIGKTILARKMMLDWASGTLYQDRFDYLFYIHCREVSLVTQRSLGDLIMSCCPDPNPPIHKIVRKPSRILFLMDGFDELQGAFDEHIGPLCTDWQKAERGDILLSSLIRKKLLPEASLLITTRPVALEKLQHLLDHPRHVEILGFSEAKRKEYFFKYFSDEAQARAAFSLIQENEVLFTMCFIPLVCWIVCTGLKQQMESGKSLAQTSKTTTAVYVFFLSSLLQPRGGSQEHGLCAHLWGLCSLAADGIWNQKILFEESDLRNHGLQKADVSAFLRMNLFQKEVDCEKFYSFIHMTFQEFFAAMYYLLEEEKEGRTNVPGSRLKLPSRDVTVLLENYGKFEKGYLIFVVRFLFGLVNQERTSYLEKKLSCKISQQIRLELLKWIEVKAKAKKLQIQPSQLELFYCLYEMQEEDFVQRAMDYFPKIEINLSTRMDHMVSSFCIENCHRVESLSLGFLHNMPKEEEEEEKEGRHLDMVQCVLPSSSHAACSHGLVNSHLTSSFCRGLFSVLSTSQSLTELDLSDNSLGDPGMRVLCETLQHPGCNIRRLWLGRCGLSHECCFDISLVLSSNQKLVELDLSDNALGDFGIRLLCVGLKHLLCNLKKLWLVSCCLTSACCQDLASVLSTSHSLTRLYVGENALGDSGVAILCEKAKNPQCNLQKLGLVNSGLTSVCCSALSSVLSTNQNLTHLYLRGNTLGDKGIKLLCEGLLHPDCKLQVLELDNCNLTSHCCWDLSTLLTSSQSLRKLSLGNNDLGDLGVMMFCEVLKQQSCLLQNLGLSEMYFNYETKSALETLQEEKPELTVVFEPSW", "UniProt Q8R4B8": "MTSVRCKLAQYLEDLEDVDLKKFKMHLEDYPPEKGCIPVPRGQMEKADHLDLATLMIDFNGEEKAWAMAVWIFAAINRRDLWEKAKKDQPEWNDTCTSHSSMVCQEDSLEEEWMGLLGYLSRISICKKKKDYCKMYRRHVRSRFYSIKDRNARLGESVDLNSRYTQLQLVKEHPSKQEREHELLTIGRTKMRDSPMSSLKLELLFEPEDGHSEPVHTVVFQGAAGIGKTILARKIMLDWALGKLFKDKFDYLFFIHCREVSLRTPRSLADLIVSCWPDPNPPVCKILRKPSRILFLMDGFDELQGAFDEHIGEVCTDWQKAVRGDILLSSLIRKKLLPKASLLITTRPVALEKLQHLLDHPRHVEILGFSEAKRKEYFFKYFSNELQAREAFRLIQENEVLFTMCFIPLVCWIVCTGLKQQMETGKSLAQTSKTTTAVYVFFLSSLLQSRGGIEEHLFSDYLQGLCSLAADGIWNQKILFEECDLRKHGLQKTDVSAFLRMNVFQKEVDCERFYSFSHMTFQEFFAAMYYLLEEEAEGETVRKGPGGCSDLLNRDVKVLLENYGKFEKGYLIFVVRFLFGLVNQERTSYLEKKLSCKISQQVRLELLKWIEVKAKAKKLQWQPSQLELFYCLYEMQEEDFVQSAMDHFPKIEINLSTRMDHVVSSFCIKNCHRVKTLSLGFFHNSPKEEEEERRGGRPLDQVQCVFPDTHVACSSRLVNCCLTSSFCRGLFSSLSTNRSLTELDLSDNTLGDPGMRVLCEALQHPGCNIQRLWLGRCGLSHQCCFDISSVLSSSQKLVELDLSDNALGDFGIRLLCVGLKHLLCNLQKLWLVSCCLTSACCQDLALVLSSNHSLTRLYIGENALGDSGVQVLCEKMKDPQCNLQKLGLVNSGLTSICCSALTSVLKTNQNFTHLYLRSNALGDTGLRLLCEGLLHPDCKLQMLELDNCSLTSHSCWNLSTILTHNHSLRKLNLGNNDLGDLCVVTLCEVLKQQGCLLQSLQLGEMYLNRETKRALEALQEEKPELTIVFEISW", "UniProt Q9ULZ3": "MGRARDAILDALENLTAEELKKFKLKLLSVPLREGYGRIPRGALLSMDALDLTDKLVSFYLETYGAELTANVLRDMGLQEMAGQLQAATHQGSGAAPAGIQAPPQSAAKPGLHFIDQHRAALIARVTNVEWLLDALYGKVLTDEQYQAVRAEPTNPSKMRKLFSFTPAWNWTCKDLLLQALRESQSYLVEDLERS"}, "source": "paper PMC4347017", "molecules": {"B1": {"name": "SHP Δ2–10 (C-terminal HA tag, in pEGFP-C1) (protein, UniProt Q15466)", "chain": "MCQGAASRPAILYALLSSSLKAVPRPRSRCLCRQHRPVQLCAPHRTCREALDVLAKTVAFLRNLPSFWQLPPQDQRRLLQGCWGPLFLLGLAQDAVTFEVAEAPVPSILKKILLEEPSSSGGSGQLPDRPQPSLAAVQWLQCCLESFWSLELSPKEYACLKGTILFNPDVPGLQAASHIGHLQQEAHWVLCEVLEPWCPAAQGRLTRVLLTASTLKSIPTSLLGDLFFRPIIGDVDIAGLLGDMLLLR"}, "B2": {"name": "SHP Δ2–19 (C-terminal HA tag, in pEGFP-C1) (protein, UniProt Q15466)", "chain": "MILYALLSSSLKAVPRPRSRCLCRQHRPVQLCAPHRTCREALDVLAKTVAFLRNLPSFWQLPPQDQRRLLQGCWGPLFLLGLAQDAVTFEVAEAPVPSILKKILLEEPSSSGGSGQLPDRPQPSLAAVQWLQCCLESFWSLELSPKEYACLKGTILFNPDVPGLQAASHIGHLQQEAHWVLCEVLEPWCPAAQGRLTRVLLTASTLKSIPTSLLGDLFFRPIIGDVDIAGLLGDMLLLR"}, "B3": {"name": "Small heterodimer partner (SHP), endogenous in mouse bone marrow-derived macrophages (protein, UniProt Q62227 1-260)", "chain": "MSSGQSGVCPCQGSAGRPTILYALLSPSPRTRPVAPASHSHCLCQQQRPVRLCAPHRTCREALDVLAKTVAFLRNLPSFCHLPHEDQRRLLECCWGPLFLLGLAQDAVTFEVAEAPVPSILKKILLEEASSGTQGAQPSDRPQPSLAAVQWLQRCLESFWSLELGPKEYAYLKGTILFNPDVPGLRASCHIAHLQQEAHWALCEVLEPWYPASQGRLARILLMASTLKNIPGTLLVDLFFRPIMGDVDITELLEDMLLLR"}, "B4": {"name": "mitochondrial antiviral-signalling protein (MAVS), endogenous in mouse bone marrow-derived macrophages (protein, UniProt Q8VCF0 1-503)", "chain": "MTFAEDKTYKYIRDNHSKFCCVDVLEILPYLSCLTASDQDRLRASYRQIGNRDTLWGLFNNLQRRPGWVEVFIRALQICELPGLADQVTRVYQSYLPPGTSLRSLEPLQLPDFPAAVSGPSAFAPGHNIPDHGLRETPSCPKPVQDTQPPESPVENSEQLLQTNSGAVARMSGGSLIPSPNQQALSPQPSREHQEQEPELGGAHAANVASVPIATYGPVSPTVSFQPLPRTALRTNLLSGVTVSALSADTSLSSSSTGSAFAKGAGDQAKAATCFSTTLTNSVTTSSVPSPRLVPVKTMSSKLPLSSKSTAAMTSTVLTNTAPSKLPSNSVYAGTVPSRVPASVAKAPANTIPPERNSKQAKETPEGPATKVTTGGNQTGPNSSIRSLHSGPEMSKPGVLVSQLDEPFSACSVDLAISPSSSLVSEPNHGPEENEYSSFRIQVDESPSADLLGSPEPLATQQPQEEEEHCASSMPWAKWLGATSALLAVFLAVMLYRSRRLAQ"}, "B5": {"name": "thioredoxin interacting protein (TXNIP), endogenous in mouse bone marrow-derived macrophages (protein, UniProt Q8BG60 1-397)", "chain": "MVMFKKIKSFEVVFNDPEKVYGSGEKVAGRVIVEVCEVTRVKAVRILACGVAKVLWMQGSQQCKQTLDYLRYEDTLLLEEQPTAGENEMVIMRPGNKYEYKFGFELPQGPLGTSFKGKYGCVDYWVKAFLDRPSQPTQEAKKNFEVMDLVDVNTPDLMAPVSAKKEKKVSCMFIPDGRVSVSARIDRKGFCEGDDISIHADFENTCSRIVVPKAAIVARHTYLANGQTKVFTQKLSSVRGNHIISGTCASWRGKSLRVQKIRPSILGCNILKVEYSLLIYVSVPGSKKVILDLPLVIGSRSGLSSRTSSMASRTSSEMSWIDLNIPDTPEAPPCYMDIIPEDHRLESPTTPLLDDVDDSQDSPIFMYAPEFQFMPPPTYTEVDPCVLNNNNNNNNVQ"}, "B6": {"name": "Small heterodimer partner (SHP), endogenous in human THP-1 cells (protein, UniProt Q15466 1-257)", "chain": "MSTSQPGACPCQGAASRPAILYALLSSSLKAVPRPRSRCLCRQHRPVQLCAPHRTCREALDVLAKTVAFLRNLPSFWQLPPQDQRRLLQGCWGPLFLLGLAQDAVTFEVAEAPVPSILKKILLEEPSSSGGSGQLPDRPQPSLAAVQWLQCCLESFWSLELSPKEYACLKGTILFNPDVPGLQAASHIGHLQQEAHWVLCEVLEPWCPAAQGRLTRVLLTASTLKSIPTSLLGDLFFRPIIGDVDIAGLLGDMLLLR"}, "B7": {"name": "V5-tagged SHP (protein, UniProt Q15466 1-257)", "chain": "B6 chain"}, "B8": {"name": "V5-SHP S26A (protein, UniProt Q15466 1-257)", "chain": "B6 chain with S26A"}, "B9": {"name": "V5-SHP S26D (protein, UniProt Q15466 1-257)", "chain": "B6 chain with S26D"}}, "key": {"[1]": {"molecular_target": "T1, Small heterodimer partner (SHP), endogenous in human THP-1 cells (human (endogenous in THP-1)) (UniProt Q15466)", "T1 sequence": "B6 chain", "test": "co-IP; endogenous proteins, human THP-1 cells after NLRP3 inflammasome activation (Supplementary Fig. 1a,b)"}, "[2]": {"molecular_target": "T2, Small heterodimer partner (SHP), endogenous in mouse bone marrow-derived macrophages (mouse (endogenous in BMDMs)) (UniProt Q62227)", "T2 sequence": "B3 chain", "test": "co-IP; endogenous proteins, whole-cell lysates (RIPA buffer) of LPS-primed BMDMs stimulated with ATP for the indicated durations; IP with anti-SHP or anti-NLRP3; also cells treated with fenofibrate or AICAR"}, "[3]": {"molecular_target": "Flag-tagged NLRP3 (human) (UniProt Q96P20)", "test": "co-IP; HEK293T cells co-transfected with tagged constructs, RIPA lysates; IP with anti-V5, anti-Flag or anti-AU1, immunoblot for Flag, V5, AU1 or GFP"}, "[4]": {"molecular_target": "NOD-like receptor family, pyrin domain-containing 3 (NLRP3), endogenous in mouse bone marrow-derived macrophages (mouse (endogenous in BMDMs)) (UniProt Q8R4B8)", "test": "co-IP; LPS-primed BMDMs (SHP+/+ and SHP-/-) stimulated with ATP (5 mM), subcellularly fractionated (cytosolic, mitochondrial), IP with anti-NLRP3, immunoblot for SHP, ASC, MAVS, TXNIP, NLRP3"}, "[5]": {"molecular_target": "NLRP3, endogenous in human THP-1 cells (human (endogenous in THP-1)) (UniProt Q96P20)", "test": "co-IP; THP-1 cells after NLRP3 inflammasome stimulation, mitochondrial fraction (Supplementary Fig. 7)"}}, "note": "Numbering of substitutions follows the chain as printed. Names and notes keep the numbering of the source. No constants are given. Whether binding was seen depends on the method and setting. Binding seen in cells or lysates may run through a third protein. Some binding calls cover weakened binding; strength is not graded here. For part of these data: Where a sequence is shown, tags or fusion partners need not be part of it.", "data": [{"molecule": "NLRP3, endogenous in human THP-1 cells (from UniProt Q96P20 1-1036)", "values": [{"measurement": "binding", "setting": "[1]", "value": "binds"}]}, {"molecule": "NOD-like receptor family, pyrin domain-containing 3 (NLRP3), endogenous in mouse bone marrow-derived macrophages (from UniProt Q8R4B8 1-1033)", "values": [{"measurement": "binding", "setting": "[2]", "value": "binds"}]}, {"molecule": "ASC, endogenous in human THP-1 cells (from UniProt Q9ULZ3 1-195)", "values": [{"measurement": "binding", "setting": "[1]", "value": "no binding"}]}, {"molecule": "B1", "values": [{"measurement": "binding", "setting": "[3]", "value": "binds"}]}, {"molecule": "B2", "values": [{"measurement": "binding", "setting": "[3]", "value": "binds"}]}, {"molecule": "B3", "values": [{"measurement": "binding", "setting": "[4]", "value": "binds"}]}, {"molecule": "B4", "values": [{"measurement": "binding", "setting": "[4]", "value": "binds"}]}, {"molecule": "B5", "values": [{"measurement": "binding", "setting": "[4]", "value": "binds"}]}, {"molecule": "B6", "values": [{"measurement": "binding", "setting": "[5]", "value": "binds"}]}, {"molecule": "B7", "values": [{"measurement": "binding", "setting": "[3]", "value": "binds"}]}, {"molecule": "B8", "values": [{"measurement": "binding", "setting": "[3]", "value": "binds"}]}, {"molecule": "B9", "values": [{"measurement": "binding", "setting": "[3]", "value": "binds"}]}]}
